According to the supplement of paper PMC7666118:
Some of the results follow.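 The calls were made as follows: active = dose-dependent thermal stabilisation significant by F-test of dose-response against flat model at 10% FDR; inactive = not significant.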

Each molecule was assayed against HSP90AA1 (UniProt P07900) (assay: dose-dependent thermal stabilisation call (2D-TPP, DLPTP, 10% FDR) (binary (1 = stabilised)); higher = stabilised by the compound). Conditions: system: Jurkat gel-filtered lysate; concentration range 1-500 µM.
Protocol: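 2D thermal proteome profiling in gel-filtered Jurkat E6.1 lysate (2 mg/ml) treated with NaGTP (0, 1, 10, 100, 500 uM) for 10 min at room temperature, then heated 3 min at one of 12 temperatures (42-63.9 C). Soluble protein was quantified by TMT10 MS. The value is the DLPTP call of the paper: dose-dependent thermal stabilisation over all temperatures at 10% FDR (F-test of a dose-response against a flat model); one experiment, one call per tested protein.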

| SMILES | dose-dependent thermal stabilisation call |
| --- | --- |
| Nc1nc2c(ncn2[C@@H]2O[C@H](COP(=O)(O)OP(=O)(O)OP(=O)(O)O)[C@@H](O)[C@H]2O)c(=O)[nH]1 | inactive: 0 |
